Experimental findings from article PMC4259352 are described below.

Chains of the proteins cited; added tags and fusions are not shown.
UniProt O60934: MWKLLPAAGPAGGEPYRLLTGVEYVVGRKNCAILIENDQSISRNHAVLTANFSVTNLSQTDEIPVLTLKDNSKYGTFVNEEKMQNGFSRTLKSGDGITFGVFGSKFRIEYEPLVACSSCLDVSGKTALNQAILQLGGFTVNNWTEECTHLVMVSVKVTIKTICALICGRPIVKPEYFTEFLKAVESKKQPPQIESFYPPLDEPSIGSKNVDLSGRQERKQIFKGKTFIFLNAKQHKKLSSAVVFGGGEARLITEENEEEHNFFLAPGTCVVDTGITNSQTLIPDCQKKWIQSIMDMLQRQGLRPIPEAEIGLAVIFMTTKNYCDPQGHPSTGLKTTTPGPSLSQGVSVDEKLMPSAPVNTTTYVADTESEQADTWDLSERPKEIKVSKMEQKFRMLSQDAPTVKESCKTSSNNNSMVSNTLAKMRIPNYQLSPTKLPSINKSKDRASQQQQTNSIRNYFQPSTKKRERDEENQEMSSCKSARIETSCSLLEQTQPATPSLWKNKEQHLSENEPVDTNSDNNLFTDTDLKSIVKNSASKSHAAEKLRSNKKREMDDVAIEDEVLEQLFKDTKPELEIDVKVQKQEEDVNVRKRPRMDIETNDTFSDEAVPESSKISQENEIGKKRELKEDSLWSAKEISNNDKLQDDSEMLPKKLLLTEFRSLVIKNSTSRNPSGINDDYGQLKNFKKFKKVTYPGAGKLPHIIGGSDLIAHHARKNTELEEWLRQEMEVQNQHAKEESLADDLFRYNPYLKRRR
UniProt P06733: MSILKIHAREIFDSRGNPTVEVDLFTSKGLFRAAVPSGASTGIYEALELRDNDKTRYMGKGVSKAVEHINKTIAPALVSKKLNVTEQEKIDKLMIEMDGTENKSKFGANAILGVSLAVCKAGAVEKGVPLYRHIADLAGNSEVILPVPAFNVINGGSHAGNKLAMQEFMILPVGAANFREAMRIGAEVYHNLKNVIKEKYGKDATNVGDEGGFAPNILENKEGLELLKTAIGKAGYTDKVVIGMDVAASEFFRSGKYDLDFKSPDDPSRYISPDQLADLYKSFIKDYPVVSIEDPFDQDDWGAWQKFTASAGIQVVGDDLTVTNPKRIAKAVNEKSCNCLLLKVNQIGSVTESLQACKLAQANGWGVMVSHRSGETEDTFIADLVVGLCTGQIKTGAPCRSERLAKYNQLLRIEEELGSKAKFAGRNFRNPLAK
UniProt P08238: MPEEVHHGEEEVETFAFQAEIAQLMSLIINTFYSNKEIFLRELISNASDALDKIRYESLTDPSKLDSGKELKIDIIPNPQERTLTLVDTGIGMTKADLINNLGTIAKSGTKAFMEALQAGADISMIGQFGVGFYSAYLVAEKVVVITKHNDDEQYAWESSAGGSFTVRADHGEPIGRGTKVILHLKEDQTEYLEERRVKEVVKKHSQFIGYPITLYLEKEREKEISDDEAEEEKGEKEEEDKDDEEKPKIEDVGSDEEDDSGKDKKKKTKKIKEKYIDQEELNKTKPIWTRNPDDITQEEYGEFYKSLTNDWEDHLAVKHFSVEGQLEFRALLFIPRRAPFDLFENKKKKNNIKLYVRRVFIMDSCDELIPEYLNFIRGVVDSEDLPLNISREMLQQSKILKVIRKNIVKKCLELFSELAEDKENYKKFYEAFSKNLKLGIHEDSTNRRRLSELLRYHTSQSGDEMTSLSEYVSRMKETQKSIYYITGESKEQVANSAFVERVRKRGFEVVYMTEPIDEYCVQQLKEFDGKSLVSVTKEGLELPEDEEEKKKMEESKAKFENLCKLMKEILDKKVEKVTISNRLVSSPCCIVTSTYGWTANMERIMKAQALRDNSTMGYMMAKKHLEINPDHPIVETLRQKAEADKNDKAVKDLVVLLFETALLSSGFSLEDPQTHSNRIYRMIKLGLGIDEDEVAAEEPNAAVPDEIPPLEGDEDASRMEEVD
UniProt P12277: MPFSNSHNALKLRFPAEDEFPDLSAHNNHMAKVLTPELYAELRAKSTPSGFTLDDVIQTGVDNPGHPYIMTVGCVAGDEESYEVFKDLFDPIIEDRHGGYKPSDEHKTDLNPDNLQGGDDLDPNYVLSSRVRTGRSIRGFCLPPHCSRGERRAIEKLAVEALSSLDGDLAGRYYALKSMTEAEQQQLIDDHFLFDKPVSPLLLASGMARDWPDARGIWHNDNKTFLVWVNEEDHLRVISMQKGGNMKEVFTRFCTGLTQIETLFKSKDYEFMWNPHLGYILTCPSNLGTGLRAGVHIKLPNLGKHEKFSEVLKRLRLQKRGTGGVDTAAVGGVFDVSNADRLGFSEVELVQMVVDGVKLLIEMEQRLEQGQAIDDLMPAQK
UniProt P00441: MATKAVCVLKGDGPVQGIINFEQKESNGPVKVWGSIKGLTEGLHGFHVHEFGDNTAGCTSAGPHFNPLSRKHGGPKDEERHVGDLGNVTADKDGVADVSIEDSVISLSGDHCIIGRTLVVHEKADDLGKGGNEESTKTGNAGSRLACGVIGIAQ
UniProt P68104: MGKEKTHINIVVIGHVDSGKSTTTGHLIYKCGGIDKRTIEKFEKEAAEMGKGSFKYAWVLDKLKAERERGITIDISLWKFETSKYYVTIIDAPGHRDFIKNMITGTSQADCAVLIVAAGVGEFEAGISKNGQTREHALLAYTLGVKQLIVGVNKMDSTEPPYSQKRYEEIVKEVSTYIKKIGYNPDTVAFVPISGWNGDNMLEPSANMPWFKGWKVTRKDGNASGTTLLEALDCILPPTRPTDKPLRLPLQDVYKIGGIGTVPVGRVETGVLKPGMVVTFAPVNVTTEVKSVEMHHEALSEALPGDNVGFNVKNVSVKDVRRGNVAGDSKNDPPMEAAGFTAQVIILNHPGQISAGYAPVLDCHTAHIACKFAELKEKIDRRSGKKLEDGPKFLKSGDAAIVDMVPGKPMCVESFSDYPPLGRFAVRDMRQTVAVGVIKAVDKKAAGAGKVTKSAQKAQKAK
UniProt Q14240: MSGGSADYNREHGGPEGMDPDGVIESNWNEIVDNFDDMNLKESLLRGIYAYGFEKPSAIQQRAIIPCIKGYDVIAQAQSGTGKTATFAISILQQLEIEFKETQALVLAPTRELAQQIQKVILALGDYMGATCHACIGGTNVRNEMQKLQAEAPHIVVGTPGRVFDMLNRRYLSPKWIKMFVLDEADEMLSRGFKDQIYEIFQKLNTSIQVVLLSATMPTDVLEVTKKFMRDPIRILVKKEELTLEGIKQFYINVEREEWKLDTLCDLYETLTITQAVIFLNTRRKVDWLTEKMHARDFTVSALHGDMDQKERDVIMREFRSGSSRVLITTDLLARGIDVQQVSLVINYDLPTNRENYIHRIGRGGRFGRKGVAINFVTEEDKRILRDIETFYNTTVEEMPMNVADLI
UniProt P04406: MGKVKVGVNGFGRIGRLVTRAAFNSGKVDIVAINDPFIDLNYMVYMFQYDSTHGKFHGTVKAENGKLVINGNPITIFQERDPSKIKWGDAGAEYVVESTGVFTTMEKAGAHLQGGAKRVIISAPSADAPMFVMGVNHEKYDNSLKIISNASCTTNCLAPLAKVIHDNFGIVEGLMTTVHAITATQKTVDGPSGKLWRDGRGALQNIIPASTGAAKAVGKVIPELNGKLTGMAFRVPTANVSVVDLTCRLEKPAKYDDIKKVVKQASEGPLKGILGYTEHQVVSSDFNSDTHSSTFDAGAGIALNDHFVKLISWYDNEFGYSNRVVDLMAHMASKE
UniProt P0DMV8: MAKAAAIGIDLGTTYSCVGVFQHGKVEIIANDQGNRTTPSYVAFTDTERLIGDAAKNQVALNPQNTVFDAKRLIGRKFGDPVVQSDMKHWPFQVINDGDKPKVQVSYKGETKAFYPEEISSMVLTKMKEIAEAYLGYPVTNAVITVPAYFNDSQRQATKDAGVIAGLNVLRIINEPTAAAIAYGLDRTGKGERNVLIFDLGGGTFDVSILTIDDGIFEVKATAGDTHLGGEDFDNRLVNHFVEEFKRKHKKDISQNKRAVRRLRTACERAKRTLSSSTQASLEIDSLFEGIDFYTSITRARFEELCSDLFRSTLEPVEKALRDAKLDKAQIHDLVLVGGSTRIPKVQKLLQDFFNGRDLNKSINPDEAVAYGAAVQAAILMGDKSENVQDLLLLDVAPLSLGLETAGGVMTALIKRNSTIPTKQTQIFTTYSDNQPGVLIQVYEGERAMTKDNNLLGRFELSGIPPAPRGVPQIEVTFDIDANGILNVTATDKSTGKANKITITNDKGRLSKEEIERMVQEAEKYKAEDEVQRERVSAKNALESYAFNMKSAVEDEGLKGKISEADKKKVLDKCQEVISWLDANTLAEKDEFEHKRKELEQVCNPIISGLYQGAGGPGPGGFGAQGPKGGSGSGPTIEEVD
UniProt P11142: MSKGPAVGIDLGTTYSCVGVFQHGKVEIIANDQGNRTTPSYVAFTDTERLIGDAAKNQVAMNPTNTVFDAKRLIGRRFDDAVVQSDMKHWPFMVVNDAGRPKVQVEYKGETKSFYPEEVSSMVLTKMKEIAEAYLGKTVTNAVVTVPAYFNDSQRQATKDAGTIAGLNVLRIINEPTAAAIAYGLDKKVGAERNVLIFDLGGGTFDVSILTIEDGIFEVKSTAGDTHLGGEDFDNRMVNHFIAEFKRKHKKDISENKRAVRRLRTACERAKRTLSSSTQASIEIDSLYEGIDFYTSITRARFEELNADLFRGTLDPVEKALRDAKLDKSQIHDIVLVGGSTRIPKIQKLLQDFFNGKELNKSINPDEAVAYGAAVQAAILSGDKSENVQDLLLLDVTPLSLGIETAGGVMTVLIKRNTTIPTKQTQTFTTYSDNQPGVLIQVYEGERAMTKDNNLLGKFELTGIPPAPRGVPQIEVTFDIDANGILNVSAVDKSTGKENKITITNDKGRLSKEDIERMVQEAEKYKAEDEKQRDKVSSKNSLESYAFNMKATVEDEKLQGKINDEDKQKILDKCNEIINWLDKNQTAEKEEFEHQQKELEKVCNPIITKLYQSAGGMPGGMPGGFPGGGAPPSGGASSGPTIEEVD
UniProt P07864: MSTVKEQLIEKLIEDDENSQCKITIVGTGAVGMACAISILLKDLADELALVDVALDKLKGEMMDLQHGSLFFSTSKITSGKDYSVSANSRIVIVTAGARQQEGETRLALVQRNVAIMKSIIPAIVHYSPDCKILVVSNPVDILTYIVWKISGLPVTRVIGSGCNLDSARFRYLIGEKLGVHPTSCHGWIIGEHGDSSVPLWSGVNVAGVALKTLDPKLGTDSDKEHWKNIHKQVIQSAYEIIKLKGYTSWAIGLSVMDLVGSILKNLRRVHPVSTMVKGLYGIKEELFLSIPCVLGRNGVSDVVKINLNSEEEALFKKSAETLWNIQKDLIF

These are yes or no findings as the source states them, for the method shown. Binding seen in cells or lysates may run through a third protein. These calls come from enrichment with a bait or labelling near it, and not all partners need be listed. No binding means not detected with the bait.

The target in this assay is Strep-tagged full-length nibrin (NBN) (human) (UniProt O60934). In words: affinity purification with mass spectrometry; Strep-tagged bait transiently expressed in HEK293 cells, untreated (K) or lysed 30 min after 2 Gy of X-rays (RX); lysate (20 mM Tris-HCl pH 8.0, 137 mM NaCl, 10% glycerol, 1% NP-40, 10 mM EDTA) on Strep-Tactin Sepharose, eluted with 2.5 mM desthiobiotin; SDS-PAGE slices, trypsin, MALDI-TOF/TOF or nano-LC-ESI-IT MS/MS; empty vector as control.

In the case of “2-phosphopyruvate-hydratase alpha enolase (from UniProt P06733 1-434)”, the binding result is “binds”. Then “90kDa heat shock protein (from UniProt P08238 1-724)”, with “no binding”.

Consider “ATP synthase subunit beta, mitochondrial precursor (from UniProt P06576 48-529)”, for which the binding entry is listed as “binds”. For “Calreticulin = calcium binding protein (from UniProt P27797 18-417)”, the binding entry is “binds”. For “Creatine kinase B (from UniProt P12277 1-381)” the value was “binds”; for “Cu/Zn-superoxide dismutase (from UniProt P00441 1-154)”, “binds”. In the case of “Elongation factor 1-alpha 1 (from UniProt P68104 1-462)”, the binding result is “binds”. For “Eukaryotic initiation factor 4AII (from UniProt Q14240 1-407)” the value was “binds”; for “Glyceraldehyde-3-phosphate dehydrogenase (from UniProt P04406 1-335)”, “no binding”. For HSP70-2 (from UniProt P0DMV8 1-641), the binding entry is “no binding”. For “Heat shock cognate 71 kDa protein isoform 1 (from UniProt P11142 1-646)” the value was “binds”.

With “Hsp89-alpha-delta-N (from UniProt P07900 1-732)”, the binding entry is “binds”. For “L-lactate dehydrogenase C chain (from UniProt P07864 1-332)” the value was “binds”.

B1: Tumor necrosis factor type 1 receptor associated protein TRAP-1 -human (protein, UniProt Q12931 60-704)
chain: STQTAEDKEEPLHSIISSTESVQGSTSKHEFQAETKKLLDIVARSLYSEKEVFIRELISNASDALEKLRHKLVSDGQALPEMEIHLQTNAEKGTITIQDTGIGMTQEELVSNLGTIARSGSKAFLDALQNQAEASSKIIGQFGVGFYSAFMVADRVEVYSRSAAPGSLGYQWLSDGSGVFEIAEASGVRTGTKIIIHLKSDCKEFSSEARVRDVVTKYSNFVSFPLYLNGRRMNTLQAIWMMDPKDVREWQHEEFYRYVAQAHDKPRYTLHYKTDAPLNIRSIFYVPDMKPSMFDVSRELGSSVALYSRKVLIQTKATDILPKWLRFIRGVVDSEDIPLNLSRELLQESALIRKLRDVLQQRLIKFFIDQSKKDAEKYAKFFEDYGLFMREGIVTATEQEVKEDIAKLLRYESSALPSGQLTSLSEYASRMRAGTRNIYYLCAPNRHLAEHSPYYEAMKKKDTEVLFCFEQFDELTLLHLREFDKKKLISVETDIVVDHYKEEKFEDRSPAAECLSEKETEELMAWMRNVLGSRVTNVKVTLRLDTHPAMVTVLEMGAARHFLRMQQLAKTQEERAQLLQPTLEINPRHALIKKLNQLRASEPGLAQLLVDQIYENAMIAAGLVDDPRAMVGRLNELLVKALERH
As to B1, the binding result is on record as “binds”.

B2: Aldolase A (protein, UniProt P04075 1-364)
chain: MPYQYPALTPEQKKELSDIAHRIVAPGKGILAADESTGSIAKRLQSIGTENTEENRRFYRQLLLTADDRVNPCIGGVILFHETLYQKADDGRPFPQVIKSKGGVVGIKVDKGVVPLAGTNGETTTQGLDGLSERCAQYKKDGADFAKWRCVLKIGEHTPSALAIMENANVLARYASICQQNGIVPIVEPEILPDGDHDLKRCQYVTEKVLAAVYKALSDHHIYLEGTLLKPNMVTPGHACTQKFSHEEIAMATVTALRRTVPPAVTGITFLSGGQSEEEASINLNAINKCPLLKPWALTFSYGRALQASALKAWGGKKENLKAAQEEYVKRALANSLACQGKYTPSGQAGAAASESLFVSNHAY
Consider B2, for which the binding result is “binds”.

B3: Peroxiredoxin 1 (protein, UniProt Q06830 1-199)
chain: MSSGNAKIGHPAPNFKATAVMPDGQFKDISLSDYKGKYVVFFFYPLDFTFVCPTEIIAFSDRAEEFKKLNCQVIGASVDSHFCHLAWVNTPKKQGGLGPMNIPLVSDPKRTIAQDYGVLKADEGISFRGLFIIDDKGILRQITVNDLPVGRSVDETLRLVQAFQFTDKHGEVCPAGWKPGSDTIKPDVQKSKEYFSKQK
For the molecule B3, the binding result is on record as “binds”.
